According to patent EP0002426B1, “Antiperspirant” (priority 1977, dated 1979):

Test system: adrenaline-induced local sweating
Test: OPT-test of sweat response after intradermal adrenaline, epidermal application of local anesthetic emulsions on the forearm
Format: in vivo, volunteers
Details: total concentration of 10%, aqueous emulsion
Procedure: The anti perspiration effect of the present invention was determined in an experimental investigation of dermal analgesia and influence upon adrenaline-induced local sweating by epidermal application of different local anesthetic formulations.
12 healthy medical students took part in the study.
Pre-formed pads, consisting of cellulose fibres, 2 times 2 centimetres, were soaked by a standardized procedure in either an emulsion containing 5% lidocaine base + 5% prilocaine base, an emulsifying agent and water, 10% lidocaine base in the same vehicle, 10% prilocaine base in the same vehicle, or a placebo emulsion containing the emulsifying agent and water only. On one forearm of the volunteer the four different emulsions were applied under occlusive dressings consisting of an impervious tape, while on the other arm the four emulsions were applied under a non-occlusive dressing, using surgical tape (3M). A certain distance between the application areas was chosen in order to avoid any risk of interference between them. […]
Just under the apex of each test area triangle an intradermal wheal 0.1 ml adrenaline 1:10 000 was injected. […] The number of black-coloured sweat pores within the standardized diameter hole in the plastic rings was counted under a direct vision microscope.

SMILES: CCN(CC)CC(=O)Nc1c(C)cccc1C [L, Diethylaminoacet-2',6'-xylidide]
- sweat response inhibition, compared among the tested formulations: less effective
